{"source": "the supplement of paper PMC4604168 (melanoma cell lines)", "note": "The list shows a part of the results. Many values rest on one well or one pass, so single values are uncertain.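 Cells were imaged in 1,536-well plates, and nuclei stained with an antibody against cleaved PARP were counted against all DNA-stained nuclei to give the apoptosis fraction. Screening doses were chosen to leave most cells alive, and resting and induced cleaved-PARP levels differ strongly between cell lines.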"}
{"tested_on": "SkMel30", "test": "cleaved PARP positive nuclei fraction relative to DMSO control; melanoma cells; higher = more apoptosis", "conditions": "library dose: low library concentration; 72 h", "units": {"cleaved PARP positive nuclei fraction": "%"}}
{"smiles": "CO[C@H]1C[C@@H]2CC[C@@H](C)[C@@](O)(O2)C(=O)C(=O)N2CCCC[C@H]2C(=O)O[C@H]([C@H](C)C[C@@H]2CC[C@@H](OCCO)[C@H](OC)C2)CC(=O)[C@H](C)/C=C(\\C)[C@@H](O)[C@@H](OC)C(=O)[C@H](C)C[C@H](C)/C=C/C=C/C=C/1C", "note": "[everolimus] + CN(NC(=O)CC(=O)NN(C)C(=S)c1ccccc1)C(=S)c1ccccc1 [STA4783] (first compound 0.02 µM, partner dose 0.006 µM)", "cleaved PARP positive nuclei fraction": 171}
{"smiles": "CO[C@H]1C[C@@H]2CC[C@@H](C)[C@@](O)(O2)C(=O)C(=O)N2CCCC[C@H]2C(=O)O[C@H]([C@H](C)C[C@@H]2CC[C@@H](OCCO)[C@H](OC)C2)CC(=O)[C@H](C)/C=C(\\C)[C@@H](O)[C@@H](OC)C(=O)[C@H](C)C[C@H](C)/C=C/C=C/C=C/1C", "note": "[everolimus] + CCCCCCCCCCCC1=C(O)C(=O)C=C(O)C1=O [Embelin] (first compound 0.02 µM, partner dose 1.2 µM)", "cleaved PARP positive nuclei fraction": 66.2}
{"smiles": "CO[C@H]1C[C@@H]2CC[C@@H](C)[C@@](O)(O2)C(=O)C(=O)N2CCCC[C@H]2C(=O)O[C@H]([C@H](C)C[C@@H]2CC[C@@H](OCCO)[C@H](OC)C2)CC(=O)[C@H](C)/C=C(\\C)[C@@H](O)[C@@H](OC)C(=O)[C@H](C)C[C@H](C)/C=C/C=C/C=C/1C", "note": "[everolimus] + COC(=O)c1sccc1S(=O)(=O)Nc1ccc(Nc2ccccc2)cc1OC [GSK0660] (first compound 0.02 µM, partner dose 1 µM)", "cleaved PARP positive nuclei fraction": 261}
{"smiles": "CO[C@H]1C[C@@H]2CC[C@@H](C)[C@@](O)(O2)C(=O)C(=O)N2CCCC[C@H]2C(=O)O[C@H]([C@H](C)C[C@@H]2CC[C@@H](OCCO)[C@H](OC)C2)CC(=O)[C@H](C)/C=C(\\C)[C@@H](O)[C@@H](OC)C(=O)[C@H](C)C[C@H](C)/C=C/C=C/C=C/1C", "note": "[everolimus] + C[C@@H]1CCN(C(=O)CC#N)C[C@@H]1N(C)c1ncnc2[nH]ccc12 [CP690550] (first compound 0.02 µM, partner dose 1 µM)", "cleaved PARP positive nuclei fraction": 120}
{"smiles": "CO[C@H]1C[C@@H]2CC[C@@H](C)[C@@](O)(O2)C(=O)C(=O)N2CCCC[C@H]2C(=O)O[C@H]([C@H](C)C[C@@H]2CC[C@@H](OCCO)[C@H](OC)C2)CC(=O)[C@H](C)/C=C(\\C)[C@@H](O)[C@@H](OC)C(=O)[C@H](C)C[C@H](C)/C=C/C=C/C=C/1C", "note": "[everolimus] + Oc1cc(-c2nc(-c3ccccc3)[nH]c2-c2ccncc2)ccc1Cl [L779450] (first compound 0.02 µM, partner dose 0.2 µM)", "cleaved PARP positive nuclei fraction": 52}
{"smiles": "CO[C@H]1C[C@@H]2CC[C@@H](C)[C@@](O)(O2)C(=O)C(=O)N2CCCC[C@H]2C(=O)O[C@H]([C@H](C)C[C@@H]2CC[C@@H](OCCO)[C@H](OC)C2)CC(=O)[C@H](C)/C=C(\\C)[C@@H](O)[C@@H](OC)C(=O)[C@H](C)C[C@H](C)/C=C/C=C/C=C/1C", "note": "[everolimus] + Cn1cncc1[C@@](N)(c1ccc(Cl)cc1)c1ccc2c(c1)c(-c1cccc(Cl)c1)cc(=O)n2C [tipifarnib] (first compound 0.02 µM, partner dose 0.01 µM)", "cleaved PARP positive nuclei fraction": 106}
{"smiles": "CO[C@H]1C[C@@H]2CC[C@@H](C)[C@@](O)(O2)C(=O)C(=O)N2CCCC[C@H]2C(=O)O[C@H]([C@H](C)C[C@@H]2CC[C@@H](OCCO)[C@H](OC)C2)CC(=O)[C@H](C)/C=C(\\C)[C@@H](O)[C@@H](OC)C(=O)[C@H](C)C[C@H](C)/C=C/C=C/C=C/1C", "note": "[everolimus] + NCC(=O)Nc1ccc(-n2nc(C(F)(F)F)cc2-c2ccc3c(ccc4ccccc43)c2)cc1 [OSU03012] (first compound 0.02 µM, partner dose 1 µM)", "cleaved PARP positive nuclei fraction": 203}
{"smiles": "CO[C@H]1C[C@@H]2CC[C@@H](C)[C@@](O)(O2)C(=O)C(=O)N2CCCC[C@H]2C(=O)O[C@H]([C@H](C)C[C@@H]2CC[C@@H](OCCO)[C@H](OC)C2)CC(=O)[C@H](C)/C=C(\\C)[C@@H](O)[C@@H](OC)C(=O)[C@H](C)C[C@H](C)/C=C/C=C/C=C/1C", "note": "[everolimus] + NC(=O)Nc1cc(-c2cccc(F)c2)sc1C(=O)N[C@H]1CCCNC1 [AZD7762] (first compound 0.02 µM, partner dose 0.02 µM)", "cleaved PARP positive nuclei fraction": 91.6}
{"smiles": "CO[C@H]1C[C@@H]2CC[C@@H](C)[C@@](O)(O2)C(=O)C(=O)N2CCCC[C@H]2C(=O)O[C@H]([C@H](C)C[C@@H]2CC[C@@H](OCCO)[C@H](OC)C2)CC(=O)[C@H](C)/C=C(\\C)[C@@H](O)[C@@H](OC)C(=O)[C@H](C)C[C@H](C)/C=C/C=C/C=C/1C", "note": "[everolimus] + O=C(Nc1ccccc1)c1cc([N+](=O)[O-])ccc1Cl [GW9662] (first compound 0.02 µM, partner dose 2 µM)", "cleaved PARP positive nuclei fraction": 219}
{"smiles": "CO[C@H]1C[C@@H]2CC[C@@H](C)[C@@](O)(O2)C(=O)C(=O)N2CCCC[C@H]2C(=O)O[C@H]([C@H](C)C[C@@H]2CC[C@@H](OCCO)[C@H](OC)C2)CC(=O)[C@H](C)/C=C(\\C)[C@@H](O)[C@@H](OC)C(=O)[C@H](C)C[C@H](C)/C=C/C=C/C=C/1C", "note": "[everolimus] + O=C1NC(=O)/C(=C/c2ccc(-c3ccc(F)cc3O)o2)S1 [AS252424] (first compound 0.02 µM, partner dose 1 µM)", "cleaved PARP positive nuclei fraction": 65.6}
{"smiles": "O=C(O)[C@@H]1[O][Sb](=[O])([O][Sb]2(=[O])[O][C@H]([C@H](O)CO)[C@H](O)[C@H](C(=O)O)[O]2)[O][C@H]([C@H](O)CO)[C@@H]1O", "note": "(stereo not given in full) [stibogluconate] + Clc1ccc(Nc2nnc(Cc3ccncc3)c3ccccc23)cc1 [vatalanib] (first compound 2 µM, partner dose 2 µM)", "cleaved PARP positive nuclei fraction": 41.8}
{"smiles": "CO[C@H]1C[C@@H]2CC[C@@H](C)[C@@](O)(O2)C(=O)C(=O)N2CCCC[C@H]2C(=O)O[C@H]([C@H](C)C[C@@H]2CC[C@@H](OCCO)[C@H](OC)C2)CC(=O)[C@H](C)/C=C(\\C)[C@@H](O)[C@@H](OC)C(=O)[C@H](C)C[C@H](C)/C=C/C=C/C=C/1C", "note": "[everolimus] + O=C(CCCCCCC(=O)Nc1ccccc1)NO [vorinostat] (first compound 0.02 µM, partner dose 0.08 µM)", "cleaved PARP positive nuclei fraction": 47.7}
{"smiles": "CO[C@H]1C[C@@H]2CC[C@@H](C)[C@@](O)(O2)C(=O)C(=O)N2CCCC[C@H]2C(=O)O[C@H]([C@H](C)C[C@@H]2CC[C@@H](OCCO)[C@H](OC)C2)CC(=O)[C@H](C)/C=C(\\C)[C@@H](O)[C@@H](OC)C(=O)[C@H](C)C[C@H](C)/C=C/C=C/C=C/1C", "note": "[everolimus] + Clc1ccc(Nc2nnc(Cc3ccncc3)c3ccccc23)cc1 [vatalanib] (first compound 0.02 µM, partner dose 2 µM)", "cleaved PARP positive nuclei fraction": 188}
{"smiles": "CO[C@H]1C[C@@H]2CC[C@@H](C)[C@@](O)(O2)C(=O)C(=O)N2CCCC[C@H]2C(=O)O[C@H]([C@H](C)C[C@@H]2CC[C@@H](OCCO)[C@H](OC)C2)CC(=O)[C@H](C)/C=C(\\C)[C@@H](O)[C@@H](OC)C(=O)[C@H](C)C[C@H](C)/C=C/C=C/C=C/1C", "note": "[everolimus] + O=C(O)c1ccc2c(c1)nc(Nc1cccc(Cl)c1)c1ccncc12 [CX4945] (first compound 0.02 µM, partner dose 0.4 µM)", "cleaved PARP positive nuclei fraction": 118}
{"smiles": "CO[C@H]1C[C@@H]2CC[C@@H](C)[C@@](O)(O2)C(=O)C(=O)N2CCCC[C@H]2C(=O)O[C@H]([C@H](C)C[C@@H]2CC[C@@H](OCCO)[C@H](OC)C2)CC(=O)[C@H](C)/C=C(\\C)[C@@H](O)[C@@H](OC)C(=O)[C@H](C)C[C@H](C)/C=C/C=C/C=C/1C", "note": "[everolimus] + CNC(=O)c1cc(Oc2ccc(NC(=O)Nc3ccc(Cl)c(C(F)(F)F)c3)cc2)ccn1 [sorafenib] (first compound 0.02 µM, partner dose 0.4 µM)", "cleaved PARP positive nuclei fraction": 58.6}
